Test [1] has as its target T1, collagen scaffold (bovine collagen type I) (bovine) (UniProt P02453+P02465). Description: microdilution assay, release of hβD2 from coated collagen scaffolds (2, 4, 30, 125 µg). (Dilution methods test growth across graded concentrations, often in twofold steps.)
The target in test [2] is T1, collagen scaffold (bovine collagen type I) (bovine). Description: agar diffusion assay, release of hβD2 from coated collagen scaffold. For orientation: Agar diffusion results depend on both activity and mobility in agar.

By UniProt entry, the sequences of proteins in these tests, tags left out. Where a name states a change or a piece, a line headed by the entry shows the natural chain unless it says otherwise.
UniProt P02453: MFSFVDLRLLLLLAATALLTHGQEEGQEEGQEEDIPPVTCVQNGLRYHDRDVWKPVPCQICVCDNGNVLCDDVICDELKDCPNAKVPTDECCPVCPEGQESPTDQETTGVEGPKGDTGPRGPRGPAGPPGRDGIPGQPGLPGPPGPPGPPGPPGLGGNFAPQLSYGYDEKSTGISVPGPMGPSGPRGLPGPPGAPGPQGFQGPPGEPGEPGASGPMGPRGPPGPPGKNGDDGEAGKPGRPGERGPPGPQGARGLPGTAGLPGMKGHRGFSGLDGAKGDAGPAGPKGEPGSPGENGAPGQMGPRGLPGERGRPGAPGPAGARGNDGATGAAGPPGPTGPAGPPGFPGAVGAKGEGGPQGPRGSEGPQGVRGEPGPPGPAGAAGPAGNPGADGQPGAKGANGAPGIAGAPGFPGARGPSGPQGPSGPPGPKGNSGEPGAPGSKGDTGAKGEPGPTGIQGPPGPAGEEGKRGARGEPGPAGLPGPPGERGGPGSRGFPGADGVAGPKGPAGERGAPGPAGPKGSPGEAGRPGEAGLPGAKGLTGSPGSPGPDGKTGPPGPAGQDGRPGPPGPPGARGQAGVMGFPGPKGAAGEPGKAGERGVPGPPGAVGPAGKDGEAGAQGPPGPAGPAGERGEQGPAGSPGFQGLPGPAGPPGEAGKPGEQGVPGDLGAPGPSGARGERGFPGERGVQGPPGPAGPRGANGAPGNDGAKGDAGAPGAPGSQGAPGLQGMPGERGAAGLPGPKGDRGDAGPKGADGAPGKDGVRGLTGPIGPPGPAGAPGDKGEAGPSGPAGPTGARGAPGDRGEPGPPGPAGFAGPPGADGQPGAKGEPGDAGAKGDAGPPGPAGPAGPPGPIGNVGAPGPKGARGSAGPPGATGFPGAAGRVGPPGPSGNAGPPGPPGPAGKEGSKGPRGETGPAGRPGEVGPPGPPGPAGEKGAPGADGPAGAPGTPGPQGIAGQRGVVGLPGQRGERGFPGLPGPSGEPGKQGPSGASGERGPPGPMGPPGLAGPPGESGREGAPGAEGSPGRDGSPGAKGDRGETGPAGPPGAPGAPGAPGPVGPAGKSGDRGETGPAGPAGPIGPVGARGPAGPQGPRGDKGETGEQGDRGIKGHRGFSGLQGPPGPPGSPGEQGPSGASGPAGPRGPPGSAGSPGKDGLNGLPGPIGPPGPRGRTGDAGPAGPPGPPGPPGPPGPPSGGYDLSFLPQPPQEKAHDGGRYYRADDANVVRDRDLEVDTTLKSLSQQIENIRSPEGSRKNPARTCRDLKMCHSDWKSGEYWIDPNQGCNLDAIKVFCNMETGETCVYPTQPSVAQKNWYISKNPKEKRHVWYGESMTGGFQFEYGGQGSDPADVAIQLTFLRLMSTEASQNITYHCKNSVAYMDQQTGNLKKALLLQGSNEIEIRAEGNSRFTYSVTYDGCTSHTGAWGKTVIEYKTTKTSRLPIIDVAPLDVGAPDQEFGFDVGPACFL
UniProt P02465: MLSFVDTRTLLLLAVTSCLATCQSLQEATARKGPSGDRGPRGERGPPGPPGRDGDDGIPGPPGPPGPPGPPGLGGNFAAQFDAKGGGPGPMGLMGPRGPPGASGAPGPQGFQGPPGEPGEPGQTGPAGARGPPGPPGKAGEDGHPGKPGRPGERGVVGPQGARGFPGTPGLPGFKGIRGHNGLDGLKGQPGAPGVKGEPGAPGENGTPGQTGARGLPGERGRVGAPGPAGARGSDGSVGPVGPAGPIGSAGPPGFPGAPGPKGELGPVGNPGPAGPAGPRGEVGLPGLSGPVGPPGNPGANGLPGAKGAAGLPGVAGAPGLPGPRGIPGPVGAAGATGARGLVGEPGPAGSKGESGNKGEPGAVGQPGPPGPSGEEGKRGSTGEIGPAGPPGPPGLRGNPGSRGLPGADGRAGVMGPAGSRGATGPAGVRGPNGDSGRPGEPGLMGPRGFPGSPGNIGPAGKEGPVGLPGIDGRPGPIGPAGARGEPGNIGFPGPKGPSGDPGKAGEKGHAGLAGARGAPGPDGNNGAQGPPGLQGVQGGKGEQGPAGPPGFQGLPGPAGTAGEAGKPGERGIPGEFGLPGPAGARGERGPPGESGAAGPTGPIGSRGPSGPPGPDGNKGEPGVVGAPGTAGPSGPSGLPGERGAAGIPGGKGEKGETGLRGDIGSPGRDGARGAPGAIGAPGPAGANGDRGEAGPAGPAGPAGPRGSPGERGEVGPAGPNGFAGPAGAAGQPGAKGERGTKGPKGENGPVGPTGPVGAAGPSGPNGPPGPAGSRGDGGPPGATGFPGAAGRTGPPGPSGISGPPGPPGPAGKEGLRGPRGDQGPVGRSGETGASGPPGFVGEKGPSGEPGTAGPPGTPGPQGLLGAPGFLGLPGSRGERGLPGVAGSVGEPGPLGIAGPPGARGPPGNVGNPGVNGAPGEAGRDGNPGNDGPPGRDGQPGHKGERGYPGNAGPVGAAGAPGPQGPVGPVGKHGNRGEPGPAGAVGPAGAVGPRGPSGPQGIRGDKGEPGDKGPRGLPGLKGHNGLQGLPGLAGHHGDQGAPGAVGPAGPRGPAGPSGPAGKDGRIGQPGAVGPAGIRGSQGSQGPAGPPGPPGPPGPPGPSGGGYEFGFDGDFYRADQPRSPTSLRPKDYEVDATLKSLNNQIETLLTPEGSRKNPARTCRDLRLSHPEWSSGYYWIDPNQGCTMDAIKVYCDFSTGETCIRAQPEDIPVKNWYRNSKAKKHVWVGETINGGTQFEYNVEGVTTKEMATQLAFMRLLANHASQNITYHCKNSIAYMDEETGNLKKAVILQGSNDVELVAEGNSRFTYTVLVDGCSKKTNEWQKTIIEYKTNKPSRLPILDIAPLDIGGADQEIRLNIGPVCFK

No constants are given. Whether binding was seen depends on the method and setting. Some results given as binding are weak or reduced against the parent protein; the word gives no strength.

B1: human β-defensin-2 (peptide)
peptide: GIGDPVTCLKSGAICHPVFCPRRYKQIGTCGLPGTKCCKKP
For the molecule B1, the binding entry in test [1] and in test [2] was “binds” in each case.

The record behind these values is patent publication EP2585123B1 (Planton GmbH, dated 2014).
